Reference: publication PMC5472181
These are yes or no findings as the source states them, for the method shown. In cells and extracts the contact can be indirect. Some entries that bind do so weakly or less than the wild type.

Amino acid sequences for entries named in this document (tags omitted).
UniProt P33535: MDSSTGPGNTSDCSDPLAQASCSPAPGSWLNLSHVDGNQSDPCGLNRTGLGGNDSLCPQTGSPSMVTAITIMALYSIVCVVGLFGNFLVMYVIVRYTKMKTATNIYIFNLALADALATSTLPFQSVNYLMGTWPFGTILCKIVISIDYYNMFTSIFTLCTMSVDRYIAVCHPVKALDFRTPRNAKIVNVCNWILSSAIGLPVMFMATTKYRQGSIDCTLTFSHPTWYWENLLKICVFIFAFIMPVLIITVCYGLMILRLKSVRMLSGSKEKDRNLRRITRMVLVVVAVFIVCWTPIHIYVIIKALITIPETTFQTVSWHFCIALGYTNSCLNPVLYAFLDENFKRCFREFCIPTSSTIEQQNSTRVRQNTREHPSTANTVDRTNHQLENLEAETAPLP
UniProt P32121: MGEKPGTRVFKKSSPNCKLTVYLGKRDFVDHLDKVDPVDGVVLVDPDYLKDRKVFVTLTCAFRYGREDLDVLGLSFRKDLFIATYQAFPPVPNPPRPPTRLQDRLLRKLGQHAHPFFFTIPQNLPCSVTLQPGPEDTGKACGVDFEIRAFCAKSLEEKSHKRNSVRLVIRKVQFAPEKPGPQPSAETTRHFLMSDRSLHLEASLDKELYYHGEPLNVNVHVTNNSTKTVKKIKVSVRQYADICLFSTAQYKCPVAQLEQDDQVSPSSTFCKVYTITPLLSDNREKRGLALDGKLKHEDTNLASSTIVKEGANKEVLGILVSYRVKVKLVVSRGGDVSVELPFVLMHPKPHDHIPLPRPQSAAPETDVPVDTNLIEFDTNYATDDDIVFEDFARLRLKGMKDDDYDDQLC

Legend:
[1] = target: rat μ-opioid receptor conjugated to yellow fluorescent protein (rat) (UniProt P33535); test: FRET or BRET; intact HEK 293 cells co-transfected 1:1 with MOPr-YFP and arrestin-3-Rluc; agonist (DAMGO or norbuprenorphine) and coelenterazine added at time 0; luminescence read over 10 min; percent increase in BRET ratio over control cells
[2] = target: rat μ-opioid receptor conjugated to yellow fluorescent protein (rat) (UniProt P33535); test: FRET or BRET; as a1, but cells treated with buprenorphine
[3] = target: rat μ-opioid receptor conjugated to yellow fluorescent protein (rat) (UniProt P33535); test: condition: only with 1 μM diprenorphine alone (no agonist); FRET or BRET; as a1, but cells treated with 1 μM diprenorphine alone (0.01% DMSO)
[4] = target: rat μ-opioid receptor conjugated to yellow fluorescent protein (rat) (UniProt P33535); test: condition: only 1 μM diprenorphine for 10 min before 10 μM DAMGO; FRET or BRET; as a1, but cells incubated with 1 μM diprenorphine for 10 min before addition of 10 μM DAMGO

binding [1]: binds | binding [2]: binds weakly | binding [3]: no binding | binding [4]: no binding
Substance: arrestin-3 tagged with renilla luciferase (from UniProt P32121 1-409)
